Publication doi:10.1101/2024.02.02.578710
No constants are given. Whether binding was seen depends on the method and setting. Binding seen in cells or lysates may run through a third protein. Binding can be weak; no strength is given.

Molecular target: E-cadherin (mouse (endogenous in 4T1))
Assay: co-IP

B1: p120-catenin isoform 1 (protein, UniProt P30999 1-938)
chain: MDDSEVESTASILASVKEQEAQFEKLTRALEEERRHVSAQLERVRVSPQDANSLMANGTLTRRHQNGRFVGDADLERQKFSDLKLNGPQDHNHLLYSTIPRMQEPGQIVETYTEEDPEGAMSVVSVETTDDGTTRRTETTVKKVVKTMTTRTVQPVPMGPDGLPVDASAVSNNYIQTLGRDFRKNGNGGPGPYVGQAGTATLPRNFHYPPDGYGRHYEDGYPGGSDNYGSLSRVTRIEERYRPSMEGYRAPSRQDVYGPQPQVRVGGSSVDLHRFHPEPYGLEDDQRSMGYDDLDYGMMSDYGTARRTGTPSDPRRRLRSYEDMIGEEVPPDQYYWAPLAQHERGSLASLDSLRKGMPPPSNWRQPELPEVIAMLGFRLDAVKSNAAAYLQHLCYRNDKVKTDVRKLKGIPILVGLLDHPKKEVHLGACGALKNISFGRDQDNKIAIKNCDGVPALVRLLRKARDMDLTEVITGTLWNLSSHDSIKMEIVDHALHALTDEVIIPHSGWEREPNEDCKPRHIEWESVLTNTAGCLRNVSSERSEARRKLRECDGLVDALIFIVQAEIGQKDSDSKLVENCVCLLRNLSYQVHREIPQAERYQEALPTVANSTGPHAASCFGAKKGKDEWFSRGKKPTEDPANDTVDFPKRTSPARGYELLFQPEVVRIYISLLKESKTPAILEASAGAIQNLCAGRWTYGRYIRSALRQEKALSAIAELLTSEHERVVKAASGALRNLAVDARNKELIGKHAIPNLVKNLPGGQQNSSWNFSEDTVVSILNTINEVIAENLEAAKKLRETQGIEKLVLINKSGNRSEKEVRAAALVLQTIWGYKELRKPLEKEGWKKSDFQVNLNNASRSQSSHSYDDSTLPLIDRNQKSDKKPDREEIPMSNMGSNTKSLDNNYSTLNERGDHNRTLDRSGDLGDMEPLKGAPLMQKI
Question: For B1, which binding is on record?
Answer: binds
